Results are given in words; binding and its absence hold for the method and conditions named. In cells and extracts the contact can be indirect. Some binding calls cover weakened binding; strength is not graded here.
T1: μ1B (AP1M2) expressed from cDNA in COS-7 cells (UniProt Q9Y6Q5)
T1 sequence: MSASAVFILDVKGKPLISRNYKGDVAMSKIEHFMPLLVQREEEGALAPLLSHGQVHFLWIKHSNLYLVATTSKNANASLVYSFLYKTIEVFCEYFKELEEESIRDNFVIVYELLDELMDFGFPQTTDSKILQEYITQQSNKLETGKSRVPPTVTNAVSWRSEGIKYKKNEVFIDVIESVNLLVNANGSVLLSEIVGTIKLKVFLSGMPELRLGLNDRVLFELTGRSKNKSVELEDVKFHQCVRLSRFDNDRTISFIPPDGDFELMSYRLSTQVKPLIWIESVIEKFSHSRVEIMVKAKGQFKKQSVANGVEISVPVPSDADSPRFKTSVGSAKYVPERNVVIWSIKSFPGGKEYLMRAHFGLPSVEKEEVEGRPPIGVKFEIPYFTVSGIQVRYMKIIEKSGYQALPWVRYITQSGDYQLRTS

T2: μ1A (AP1M1) expressed from cDNA in COS-7 cells (UniProt Q9BXS5)
T2 sequence: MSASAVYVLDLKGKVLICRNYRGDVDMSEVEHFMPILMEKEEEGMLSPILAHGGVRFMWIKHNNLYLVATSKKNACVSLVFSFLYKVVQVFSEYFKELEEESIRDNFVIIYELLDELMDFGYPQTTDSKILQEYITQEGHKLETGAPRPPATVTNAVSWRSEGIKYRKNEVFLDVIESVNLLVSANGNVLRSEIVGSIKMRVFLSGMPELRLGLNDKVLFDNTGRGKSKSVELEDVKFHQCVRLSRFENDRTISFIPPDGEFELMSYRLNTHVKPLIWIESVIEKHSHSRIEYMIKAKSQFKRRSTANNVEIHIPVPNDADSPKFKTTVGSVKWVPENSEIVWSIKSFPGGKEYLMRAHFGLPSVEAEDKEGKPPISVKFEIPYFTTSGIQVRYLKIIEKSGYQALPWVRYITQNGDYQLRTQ


Legend:
[1] = target: T1, μ1B (AP1M2) expressed from cDNA in COS-7 cells; assay: co-IP; COS-7 cells cotransfected with WT hNIS or mutants and with μ1A or μ1B; IP with μ1A or μ1B antibodies, immunoblot with rabbit polyclonal anti-hNIS antibody; NIS signal in IP standardized to input and normalized to WT
[2] = target: T2, μ1A (AP1M1) expressed from cDNA in COS-7 cells; assay: as above

binding [1] | binding [2] | Binder
binds | binds | hNIS L121A (protein, UniProt Q92911 1-643) MEAVETGERPTFGAWDYGVFALMLLVSTGIGLWVGLARGGQRSAEDFFTGGRRLAALPVGLSLSASFMSAVQVLGVPSEAYRYGLKFLWMCLGQLLNSVLTALLFMPVFYRLGLTSTYEYAEMRFSRAVRLCGTLQYIVATMLYTGIVIYAPALILNQVTGLDIWASLLSTGIICTFYTAVGGMKAVVWTDVFQVVVMLSGFWVVLARGVMLVGGPRQVLTLAQNHSRINLMDFNPDPRSRYTFWTFVVGGTLVWLSMYGVNQAQVQRYVACRTEKQAKLALLINQVGLFLIVSSAACCGIVMFVFYTDCDPLLLGRISAPDQYMPLLVLDIFEDLPGVPGLFLACAYSGTLSTASTSINAMAAVTVEDLIKPRLRSLAPRKLVIISKGLSLIYGSACLTVAALSSLLGGGVLQGSFTVMGVISGPLLGAFILGMFLPACNTPGVLAGLGAGLALSLWVALGATLYPPSEQTMRVLPSSAARCVALSVNASGLLDPALLPANDSSRAPSSGMDASRPALADSFYAISYLYYGALGTLTTVLCGALISCLTGPTKRSTLAPGLLWWDLARQTASVAPKEEVAILDDNLVKGPEELPTGNKKPPGFLPTNEDRLFFLGQKELEGAGSWTPCVGHDGGRDQQETNL
binds | binds | hNIS L587A (protein, UniProt Q92911 1-643) MEAVETGERPTFGAWDYGVFALMLLVSTGIGLWVGLARGGQRSAEDFFTGGRRLAALPVGLSLSASFMSAVQVLGVPSEAYRYGLKFLWMCLGQLLNSVLTALLFMPVFYRLGLTSTYEYLEMRFSRAVRLCGTLQYIVATMLYTGIVIYAPALILNQVTGLDIWASLLSTGIICTFYTAVGGMKAVVWTDVFQVVVMLSGFWVVLARGVMLVGGPRQVLTLAQNHSRINLMDFNPDPRSRYTFWTFVVGGTLVWLSMYGVNQAQVQRYVACRTEKQAKLALLINQVGLFLIVSSAACCGIVMFVFYTDCDPLLLGRISAPDQYMPLLVLDIFEDLPGVPGLFLACAYSGTLSTASTSINAMAAVTVEDLIKPRLRSLAPRKLVIISKGLSLIYGSACLTVAALSSLLGGGVLQGSFTVMGVISGPLLGAFILGMFLPACNTPGVLAGLGAGLALSLWVALGATLYPPSEQTMRVLPSSAARCVALSVNASGLLDPALLPANDSSRAPSSGMDASRPALADSFYAISYLYYGALGTLTTVLCGALISCLTGPTKRSTLAPGLLWWDLARQTASVAPKEEVAILDDNAVKGPEELPTGNKKPPGFLPTNEDRLFFLGQKELEGAGSWTPCVGHDGGRDQQETNL
binds | binds | hNIS L594A (protein, UniProt Q92911 1-643) MEAVETGERPTFGAWDYGVFALMLLVSTGIGLWVGLARGGQRSAEDFFTGGRRLAALPVGLSLSASFMSAVQVLGVPSEAYRYGLKFLWMCLGQLLNSVLTALLFMPVFYRLGLTSTYEYLEMRFSRAVRLCGTLQYIVATMLYTGIVIYAPALILNQVTGLDIWASLLSTGIICTFYTAVGGMKAVVWTDVFQVVVMLSGFWVVLARGVMLVGGPRQVLTLAQNHSRINLMDFNPDPRSRYTFWTFVVGGTLVWLSMYGVNQAQVQRYVACRTEKQAKLALLINQVGLFLIVSSAACCGIVMFVFYTDCDPLLLGRISAPDQYMPLLVLDIFEDLPGVPGLFLACAYSGTLSTASTSINAMAAVTVEDLIKPRLRSLAPRKLVIISKGLSLIYGSACLTVAALSSLLGGGVLQGSFTVMGVISGPLLGAFILGMFLPACNTPGVLAGLGAGLALSLWVALGATLYPPSEQTMRVLPSSAARCVALSVNASGLLDPALLPANDSSRAPSSGMDASRPALADSFYAISYLYYGALGTLTTVLCGALISCLTGPTKRSTLAPGLLWWDLARQTASVAPKEEVAILDDNLVKGPEEAPTGNKKPPGFLPTNEDRLFFLGQKELEGAGSWTPCVGHDGGRDQQETNL
binds | binds | hNIS Y118A (protein, UniProt Q92911 1-643) MEAVETGERPTFGAWDYGVFALMLLVSTGIGLWVGLARGGQRSAEDFFTGGRRLAALPVGLSLSASFMSAVQVLGVPSEAYRYGLKFLWMCLGQLLNSVLTALLFMPVFYRLGLTSTAEYLEMRFSRAVRLCGTLQYIVATMLYTGIVIYAPALILNQVTGLDIWASLLSTGIICTFYTAVGGMKAVVWTDVFQVVVMLSGFWVVLARGVMLVGGPRQVLTLAQNHSRINLMDFNPDPRSRYTFWTFVVGGTLVWLSMYGVNQAQVQRYVACRTEKQAKLALLINQVGLFLIVSSAACCGIVMFVFYTDCDPLLLGRISAPDQYMPLLVLDIFEDLPGVPGLFLACAYSGTLSTASTSINAMAAVTVEDLIKPRLRSLAPRKLVIISKGLSLIYGSACLTVAALSSLLGGGVLQGSFTVMGVISGPLLGAFILGMFLPACNTPGVLAGLGAGLALSLWVALGATLYPPSEQTMRVLPSSAARCVALSVNASGLLDPALLPANDSSRAPSSGMDASRPALADSFYAISYLYYGALGTLTTVLCGALISCLTGPTKRSTLAPGLLWWDLARQTASVAPKEEVAILDDNLVKGPEELPTGNKKPPGFLPTNEDRLFFLGQKELEGAGSWTPCVGHDGGRDQQETNL
binds | binds | wild-type human sodium/iodide symporter (hNIS) (protein, UniProt Q92911 1-643) MEAVETGERPTFGAWDYGVFALMLLVSTGIGLWVGLARGGQRSAEDFFTGGRRLAALPVGLSLSASFMSAVQVLGVPSEAYRYGLKFLWMCLGQLLNSVLTALLFMPVFYRLGLTSTYEYLEMRFSRAVRLCGTLQYIVATMLYTGIVIYAPALILNQVTGLDIWASLLSTGIICTFYTAVGGMKAVVWTDVFQVVVMLSGFWVVLARGVMLVGGPRQVLTLAQNHSRINLMDFNPDPRSRYTFWTFVVGGTLVWLSMYGVNQAQVQRYVACRTEKQAKLALLINQVGLFLIVSSAACCGIVMFVFYTDCDPLLLGRISAPDQYMPLLVLDIFEDLPGVPGLFLACAYSGTLSTASTSINAMAAVTVEDLIKPRLRSLAPRKLVIISKGLSLIYGSACLTVAALSSLLGGGVLQGSFTVMGVISGPLLGAFILGMFLPACNTPGVLAGLGAGLALSLWVALGATLYPPSEQTMRVLPSSAARCVALSVNASGLLDPALLPANDSSRAPSSGMDASRPALADSFYAISYLYYGALGTLTTVLCGALISCLTGPTKRSTLAPGLLWWDLARQTASVAPKEEVAILDDNLVKGPEELPTGNKKPPGFLPTNEDRLFFLGQKELEGAGSWTPCVGHDGGRDQQETNL
binds | binds weakly | hNIS LL562/563AA (protein, UniProt Q92911 1-643) MEAVETGERPTFGAWDYGVFALMLLVSTGIGLWVGLARGGQRSAEDFFTGGRRLAALPVGLSLSASFMSAVQVLGVPSEAYRYGLKFLWMCLGQLLNSVLTALLFMPVFYRLGLTSTYEYLEMRFSRAVRLCGTLQYIVATMLYTGIVIYAPALILNQVTGLDIWASLLSTGIICTFYTAVGGMKAVVWTDVFQVVVMLSGFWVVLARGVMLVGGPRQVLTLAQNHSRINLMDFNPDPRSRYTFWTFVVGGTLVWLSMYGVNQAQVQRYVACRTEKQAKLALLINQVGLFLIVSSAACCGIVMFVFYTDCDPLLLGRISAPDQYMPLLVLDIFEDLPGVPGLFLACAYSGTLSTASTSINAMAAVTVEDLIKPRLRSLAPRKLVIISKGLSLIYGSACLTVAALSSLLGGGVLQGSFTVMGVISGPLLGAFILGMFLPACNTPGVLAGLGAGLALSLWVALGATLYPPSEQTMRVLPSSAARCVALSVNASGLLDPALLPANDSSRAPSSGMDASRPALADSFYAISYLYYGALGTLTTVLCGALISCLTGPTKRSTLAPGAAWWDLARQTASVAPKEEVAILDDNLVKGPEELPTGNKKPPGFLPTNEDRLFFLGQKELEGAGSWTPCVGHDGGRDQQETNL
binds | binds | hNIS L583A (protein, UniProt Q92911 1-643) MEAVETGERPTFGAWDYGVFALMLLVSTGIGLWVGLARGGQRSAEDFFTGGRRLAALPVGLSLSASFMSAVQVLGVPSEAYRYGLKFLWMCLGQLLNSVLTALLFMPVFYRLGLTSTYEYLEMRFSRAVRLCGTLQYIVATMLYTGIVIYAPALILNQVTGLDIWASLLSTGIICTFYTAVGGMKAVVWTDVFQVVVMLSGFWVVLARGVMLVGGPRQVLTLAQNHSRINLMDFNPDPRSRYTFWTFVVGGTLVWLSMYGVNQAQVQRYVACRTEKQAKLALLINQVGLFLIVSSAACCGIVMFVFYTDCDPLLLGRISAPDQYMPLLVLDIFEDLPGVPGLFLACAYSGTLSTASTSINAMAAVTVEDLIKPRLRSLAPRKLVIISKGLSLIYGSACLTVAALSSLLGGGVLQGSFTVMGVISGPLLGAFILGMFLPACNTPGVLAGLGAGLALSLWVALGATLYPPSEQTMRVLPSSAARCVALSVNASGLLDPALLPANDSSRAPSSGMDASRPALADSFYAISYLYYGALGTLTTVLCGALISCLTGPTKRSTLAPGLLWWDLARQTASVAPKEEVAIADDNLVKGPEELPTGNKKPPGFLPTNEDRLFFLGQKELEGAGSWTPCVGHDGGRDQQETNL
